Test results: paper PMC9352765
These are yes or no findings as the source states them, for the method shown. In cells and extracts the contact can be indirect. These calls come from enrichment with a bait or labelling near it, and not all partners need be listed.

Amino acid sequences for entries named in this document (tags omitted).
UniProt A0A8I3MKE1: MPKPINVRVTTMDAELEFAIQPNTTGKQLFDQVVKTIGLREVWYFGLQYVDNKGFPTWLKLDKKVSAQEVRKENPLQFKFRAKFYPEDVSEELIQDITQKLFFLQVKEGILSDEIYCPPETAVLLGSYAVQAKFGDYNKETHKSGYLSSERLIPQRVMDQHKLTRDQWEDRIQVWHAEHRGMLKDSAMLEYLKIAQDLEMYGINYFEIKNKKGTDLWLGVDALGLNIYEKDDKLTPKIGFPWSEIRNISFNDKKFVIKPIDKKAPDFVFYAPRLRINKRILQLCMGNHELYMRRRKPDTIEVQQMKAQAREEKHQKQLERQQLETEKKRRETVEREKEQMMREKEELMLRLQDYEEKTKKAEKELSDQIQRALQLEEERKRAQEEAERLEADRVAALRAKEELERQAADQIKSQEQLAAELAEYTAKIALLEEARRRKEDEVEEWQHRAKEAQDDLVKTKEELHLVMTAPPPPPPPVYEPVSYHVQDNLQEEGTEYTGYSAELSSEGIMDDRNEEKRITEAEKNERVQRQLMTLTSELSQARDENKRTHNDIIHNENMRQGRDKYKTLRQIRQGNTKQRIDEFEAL

Biological target: T1, Syt13-BirA recombinant protein (mouse) (UniProt Q9EQT6)
T1 sequence: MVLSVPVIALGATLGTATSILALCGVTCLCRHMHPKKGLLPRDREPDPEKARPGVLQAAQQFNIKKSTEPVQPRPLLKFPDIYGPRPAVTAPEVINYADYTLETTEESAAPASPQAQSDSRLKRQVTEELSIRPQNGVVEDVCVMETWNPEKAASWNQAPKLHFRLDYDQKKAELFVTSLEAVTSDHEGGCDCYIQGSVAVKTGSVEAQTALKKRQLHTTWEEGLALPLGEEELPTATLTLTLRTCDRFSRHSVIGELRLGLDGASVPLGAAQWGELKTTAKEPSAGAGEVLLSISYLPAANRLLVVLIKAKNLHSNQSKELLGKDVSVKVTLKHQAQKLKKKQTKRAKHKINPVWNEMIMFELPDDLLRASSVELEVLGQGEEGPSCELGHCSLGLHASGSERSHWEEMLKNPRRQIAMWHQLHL
Experiment: proximity labelling; BioID: MDCK cells stably expressing Syt13-BirA (control: Syt13), 50 µM biotin for 16 h; lysate on NeutrAvidin agarose beads; western blot

binding | Substance
binds | EBP50 (canine (endogenous in MDCK))
binds | Ezrin (from UniProt A0A8I3MKE1 1-586)
binds | Merlin (canine (endogenous in MDCK))
binds | atypical protein kinase C (canine (endogenous in MDCK))
